From paper PMC7876461 come the findings set out here.

The chains behind the UniProt entries cited, without tags or fusion partners. Where a name states a change or a piece, a line headed by the entry shows the natural chain unless it says otherwise.
UniProt P19793: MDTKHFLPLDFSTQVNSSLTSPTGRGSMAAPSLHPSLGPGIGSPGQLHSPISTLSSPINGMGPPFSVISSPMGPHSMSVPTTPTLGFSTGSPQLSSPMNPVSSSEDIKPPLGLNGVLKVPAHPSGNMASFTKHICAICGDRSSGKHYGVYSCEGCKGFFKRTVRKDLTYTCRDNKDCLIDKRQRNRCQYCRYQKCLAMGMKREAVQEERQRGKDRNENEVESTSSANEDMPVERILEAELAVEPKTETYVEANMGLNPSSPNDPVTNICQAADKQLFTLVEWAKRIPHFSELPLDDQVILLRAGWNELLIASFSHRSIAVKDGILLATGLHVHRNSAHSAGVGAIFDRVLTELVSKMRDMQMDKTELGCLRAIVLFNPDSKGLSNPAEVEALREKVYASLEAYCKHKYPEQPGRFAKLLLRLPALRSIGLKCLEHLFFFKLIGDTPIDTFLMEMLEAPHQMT

For at least one entry, the source does not settle the construct or the ends of the probe. At least one result comes from cells or an extract, where the contact may be indirect. For some of these results: Negatives hold for the conditions tested. For some of these results: The comparison behind a weaker result is the experiment's own reference, which may not be listed here.

For data set [1], the target named is RXRA (Homo sapiens) (UniProt P19793). In words: competition with a labelled probe. To be noted: LightShift EMSA binding buffer with poly(dI-dC), glycerol, NP-40, MgCl2 (stocks 1 ug/ul, 50%, 1%, 100 mM; final not stated), 10 ug nuclear extract, protein in an extract. A general note: A gel shift assay detects complexes by their altered migration in electrophoresis.

Data set [2] has the same target. In words: EMSA. The note with it: band diminished, legend: no interaction with mutant; LightShift EMSA binding buffer with poly(dI-dC), glycerol, NP-40, MgCl2 (stocks 1 ug/ul, 50%, 1%, 100 mM; final not stated), 10 ug nuclear extract; protein in an extract.
The target is the same in data set [3]. Nature of the data set: EMSA, shift-western. The note with it: LightShift EMSA binding buffer with poly(dI-dC), glycerol, NP-40, MgCl2 (stocks 1 ug/ul, 50%, 1%, 100 mM; final not stated), 10 ug nuclear extract; protein in an extract.

Take “GCCGGAGGAGGGGGCCCCGGACACACACACACACACACACCC (double strand) [HES1 mutant unlabeled competitor]”: in the data set with RXRA (Homo sapiens) [1] (unlabeled mutant (200-fold molar) vs biotin WT probe, band not changed), the binding result is “no binding”.

Turning to “GCCGGAGGAGGGGGCCCCGGACACACACACACACACACACCC (double strand) [HES1 promoter mutant probe (c.-1279_-1278insAC)]”, in the data set with RXRA (Homo sapiens) [2], the binding result is “binds more weakly”.

In the case of “GCCGGAGGAGGGGGCCCCGGACACACACACACACACACCC (double strand) [HES1 WT unlabeled competitor]”, in the data set with RXRA (Homo sapiens) [1] (200-fold molar unlabeled vs biotin WT probe, band diminished), the binding result is recorded as “binds”.

Consider “GCCGGAGGAGGGGGCCCCGGACACACACACACACACACCC (double strand) [HES1 promoter WT probe (-1317 to -1278)]”, for which, in the data set with RXRA (Homo sapiens) [3], the binding result was “binds”.
